Assay results taken from the supplement of paper PMC12819154, “High-throughput peptide-centric local stability assay extends protein–ligand identification to membrane proteins, tissues and bacteria” (Nature Structural & Molecular Biology, 2025).
The other results are listed elsewhere or left out. Small differences around the control level are noise.

Protein sequences, listed by entry. Tags and fused reporters are not part of them. Lines headed by an entry give the natural chain unless they say otherwise; changes in a name come on top.
UniProt P27773: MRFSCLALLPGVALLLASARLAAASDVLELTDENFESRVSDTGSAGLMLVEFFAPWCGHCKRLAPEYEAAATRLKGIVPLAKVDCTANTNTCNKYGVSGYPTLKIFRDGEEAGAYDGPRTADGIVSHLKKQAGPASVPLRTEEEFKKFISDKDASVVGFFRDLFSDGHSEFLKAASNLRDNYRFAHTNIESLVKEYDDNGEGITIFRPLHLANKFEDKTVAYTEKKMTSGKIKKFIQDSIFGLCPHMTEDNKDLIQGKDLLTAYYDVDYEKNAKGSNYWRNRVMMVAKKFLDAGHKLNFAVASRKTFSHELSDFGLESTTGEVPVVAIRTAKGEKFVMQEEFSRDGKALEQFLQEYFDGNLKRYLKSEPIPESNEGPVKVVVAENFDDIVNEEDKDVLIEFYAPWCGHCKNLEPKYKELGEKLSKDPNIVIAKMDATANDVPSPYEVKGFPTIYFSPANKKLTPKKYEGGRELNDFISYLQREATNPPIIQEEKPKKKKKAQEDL
UniProt P20443, whole entry: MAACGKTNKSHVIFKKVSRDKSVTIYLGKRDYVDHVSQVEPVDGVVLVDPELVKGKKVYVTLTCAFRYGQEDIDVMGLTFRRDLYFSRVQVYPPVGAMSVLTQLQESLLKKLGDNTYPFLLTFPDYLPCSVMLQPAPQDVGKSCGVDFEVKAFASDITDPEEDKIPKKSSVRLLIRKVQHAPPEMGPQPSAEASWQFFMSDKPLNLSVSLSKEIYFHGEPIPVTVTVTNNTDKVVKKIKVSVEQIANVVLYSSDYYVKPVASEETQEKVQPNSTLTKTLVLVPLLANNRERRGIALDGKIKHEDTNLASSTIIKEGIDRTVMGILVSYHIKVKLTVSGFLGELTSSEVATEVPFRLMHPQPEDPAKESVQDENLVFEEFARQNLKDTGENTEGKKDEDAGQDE
UniProt P20152, whole entry: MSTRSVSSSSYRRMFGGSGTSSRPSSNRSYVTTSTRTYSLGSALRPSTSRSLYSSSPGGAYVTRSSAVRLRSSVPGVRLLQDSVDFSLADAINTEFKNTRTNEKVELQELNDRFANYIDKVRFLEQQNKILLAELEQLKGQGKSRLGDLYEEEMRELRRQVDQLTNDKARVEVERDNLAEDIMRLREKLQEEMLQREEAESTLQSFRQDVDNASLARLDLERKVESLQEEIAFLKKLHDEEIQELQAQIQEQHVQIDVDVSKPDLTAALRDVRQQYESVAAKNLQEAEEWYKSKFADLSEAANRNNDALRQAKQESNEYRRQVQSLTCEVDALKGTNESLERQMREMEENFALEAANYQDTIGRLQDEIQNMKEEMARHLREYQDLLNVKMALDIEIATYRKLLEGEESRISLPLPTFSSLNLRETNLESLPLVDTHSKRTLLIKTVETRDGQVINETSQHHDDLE
UniProt P24369: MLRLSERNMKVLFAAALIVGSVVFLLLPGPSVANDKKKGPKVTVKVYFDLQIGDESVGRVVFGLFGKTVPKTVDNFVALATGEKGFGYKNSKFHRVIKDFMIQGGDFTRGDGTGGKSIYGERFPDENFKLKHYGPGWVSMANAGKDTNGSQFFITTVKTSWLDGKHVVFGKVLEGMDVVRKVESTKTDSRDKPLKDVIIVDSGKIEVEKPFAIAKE
UniProt P29754, whole entry: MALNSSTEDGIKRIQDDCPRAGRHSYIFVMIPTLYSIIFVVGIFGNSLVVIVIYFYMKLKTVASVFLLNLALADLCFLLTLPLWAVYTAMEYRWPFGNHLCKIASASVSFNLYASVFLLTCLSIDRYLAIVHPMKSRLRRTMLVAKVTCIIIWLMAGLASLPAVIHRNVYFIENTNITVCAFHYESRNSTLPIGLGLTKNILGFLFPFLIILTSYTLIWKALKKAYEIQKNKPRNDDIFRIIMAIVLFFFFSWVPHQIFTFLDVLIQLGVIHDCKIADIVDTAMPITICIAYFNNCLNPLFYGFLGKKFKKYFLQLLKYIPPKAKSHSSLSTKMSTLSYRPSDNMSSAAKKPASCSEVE
UniProt P28063: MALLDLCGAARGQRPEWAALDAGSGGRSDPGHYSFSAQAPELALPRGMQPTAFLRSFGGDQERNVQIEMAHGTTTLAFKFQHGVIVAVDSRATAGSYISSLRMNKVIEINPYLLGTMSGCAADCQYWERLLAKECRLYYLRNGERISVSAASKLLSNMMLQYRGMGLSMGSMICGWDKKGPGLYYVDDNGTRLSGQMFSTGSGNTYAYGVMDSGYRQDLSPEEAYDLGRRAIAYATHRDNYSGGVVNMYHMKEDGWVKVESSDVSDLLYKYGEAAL
UniProt P30051, whole entry: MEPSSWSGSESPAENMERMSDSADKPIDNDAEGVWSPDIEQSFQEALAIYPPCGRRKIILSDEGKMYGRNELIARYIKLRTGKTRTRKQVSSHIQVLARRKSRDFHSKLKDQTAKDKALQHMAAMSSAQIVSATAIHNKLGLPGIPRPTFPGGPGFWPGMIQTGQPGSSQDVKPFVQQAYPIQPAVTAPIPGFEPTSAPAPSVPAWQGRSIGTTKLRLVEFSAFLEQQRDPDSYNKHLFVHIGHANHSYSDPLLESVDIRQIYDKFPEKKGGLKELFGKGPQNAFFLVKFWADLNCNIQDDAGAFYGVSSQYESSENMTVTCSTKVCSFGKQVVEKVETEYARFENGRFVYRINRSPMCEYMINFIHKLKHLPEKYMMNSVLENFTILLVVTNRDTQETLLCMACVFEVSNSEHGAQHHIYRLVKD
UniProt P28704: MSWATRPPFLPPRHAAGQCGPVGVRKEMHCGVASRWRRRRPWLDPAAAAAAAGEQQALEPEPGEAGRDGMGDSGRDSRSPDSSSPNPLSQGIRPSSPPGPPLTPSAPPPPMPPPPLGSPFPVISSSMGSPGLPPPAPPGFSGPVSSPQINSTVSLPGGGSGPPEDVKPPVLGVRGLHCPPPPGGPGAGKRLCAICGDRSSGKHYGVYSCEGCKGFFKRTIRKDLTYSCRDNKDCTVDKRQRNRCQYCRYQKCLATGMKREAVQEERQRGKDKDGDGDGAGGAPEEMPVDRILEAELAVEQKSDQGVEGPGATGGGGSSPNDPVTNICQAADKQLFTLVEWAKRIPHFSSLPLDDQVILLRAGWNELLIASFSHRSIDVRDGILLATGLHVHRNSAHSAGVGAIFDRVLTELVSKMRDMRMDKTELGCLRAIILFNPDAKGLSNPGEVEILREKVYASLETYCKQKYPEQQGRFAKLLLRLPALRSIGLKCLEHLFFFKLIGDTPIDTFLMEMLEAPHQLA
UniProt P28574, whole entry: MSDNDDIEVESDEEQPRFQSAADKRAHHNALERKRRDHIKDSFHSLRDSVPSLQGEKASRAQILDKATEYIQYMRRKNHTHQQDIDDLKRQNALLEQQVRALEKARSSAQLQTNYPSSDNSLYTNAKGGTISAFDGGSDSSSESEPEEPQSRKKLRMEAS
UniProt P27641: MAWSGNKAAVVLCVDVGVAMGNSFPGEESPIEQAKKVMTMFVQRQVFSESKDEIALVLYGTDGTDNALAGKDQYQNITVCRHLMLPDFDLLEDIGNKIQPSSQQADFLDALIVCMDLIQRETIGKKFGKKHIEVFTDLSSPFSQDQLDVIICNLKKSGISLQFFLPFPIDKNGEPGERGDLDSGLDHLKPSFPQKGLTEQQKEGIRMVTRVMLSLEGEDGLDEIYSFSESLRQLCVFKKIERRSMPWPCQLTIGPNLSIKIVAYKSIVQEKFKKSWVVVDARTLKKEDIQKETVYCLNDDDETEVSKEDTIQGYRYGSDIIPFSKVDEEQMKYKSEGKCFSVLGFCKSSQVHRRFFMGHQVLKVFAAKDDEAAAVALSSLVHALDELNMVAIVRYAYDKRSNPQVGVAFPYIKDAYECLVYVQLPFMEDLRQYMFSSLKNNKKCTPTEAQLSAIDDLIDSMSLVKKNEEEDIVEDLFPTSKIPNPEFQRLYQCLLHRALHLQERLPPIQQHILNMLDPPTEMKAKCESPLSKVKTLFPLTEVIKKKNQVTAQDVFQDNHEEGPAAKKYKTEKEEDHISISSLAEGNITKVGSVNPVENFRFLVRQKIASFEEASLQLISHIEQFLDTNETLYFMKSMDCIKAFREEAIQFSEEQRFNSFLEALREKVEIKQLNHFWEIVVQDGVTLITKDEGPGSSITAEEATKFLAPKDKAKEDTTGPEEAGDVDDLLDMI
UniProt P19783: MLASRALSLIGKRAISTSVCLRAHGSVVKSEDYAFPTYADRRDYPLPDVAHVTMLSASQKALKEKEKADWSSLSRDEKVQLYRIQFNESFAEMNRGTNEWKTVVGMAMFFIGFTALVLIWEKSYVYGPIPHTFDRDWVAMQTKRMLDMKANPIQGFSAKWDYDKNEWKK
UniProt P28667: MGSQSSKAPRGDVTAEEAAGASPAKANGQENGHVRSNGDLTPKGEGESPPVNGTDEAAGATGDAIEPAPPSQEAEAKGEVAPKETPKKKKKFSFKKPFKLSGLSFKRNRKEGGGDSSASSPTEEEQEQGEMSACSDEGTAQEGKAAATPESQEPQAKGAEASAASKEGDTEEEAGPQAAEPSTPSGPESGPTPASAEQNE
UniProt P30545, whole entry: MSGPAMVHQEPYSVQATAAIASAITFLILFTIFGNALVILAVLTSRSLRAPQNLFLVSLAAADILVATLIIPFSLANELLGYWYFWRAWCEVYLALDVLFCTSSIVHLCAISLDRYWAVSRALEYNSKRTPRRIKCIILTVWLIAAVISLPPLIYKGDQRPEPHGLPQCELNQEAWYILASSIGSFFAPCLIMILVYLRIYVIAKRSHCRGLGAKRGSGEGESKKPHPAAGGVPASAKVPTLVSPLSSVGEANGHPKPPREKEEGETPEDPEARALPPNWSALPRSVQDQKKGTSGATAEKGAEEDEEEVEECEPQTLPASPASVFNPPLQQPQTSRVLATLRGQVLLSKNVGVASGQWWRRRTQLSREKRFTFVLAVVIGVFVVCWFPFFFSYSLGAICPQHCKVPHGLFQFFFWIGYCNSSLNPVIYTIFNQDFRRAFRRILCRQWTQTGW
UniProt P28867: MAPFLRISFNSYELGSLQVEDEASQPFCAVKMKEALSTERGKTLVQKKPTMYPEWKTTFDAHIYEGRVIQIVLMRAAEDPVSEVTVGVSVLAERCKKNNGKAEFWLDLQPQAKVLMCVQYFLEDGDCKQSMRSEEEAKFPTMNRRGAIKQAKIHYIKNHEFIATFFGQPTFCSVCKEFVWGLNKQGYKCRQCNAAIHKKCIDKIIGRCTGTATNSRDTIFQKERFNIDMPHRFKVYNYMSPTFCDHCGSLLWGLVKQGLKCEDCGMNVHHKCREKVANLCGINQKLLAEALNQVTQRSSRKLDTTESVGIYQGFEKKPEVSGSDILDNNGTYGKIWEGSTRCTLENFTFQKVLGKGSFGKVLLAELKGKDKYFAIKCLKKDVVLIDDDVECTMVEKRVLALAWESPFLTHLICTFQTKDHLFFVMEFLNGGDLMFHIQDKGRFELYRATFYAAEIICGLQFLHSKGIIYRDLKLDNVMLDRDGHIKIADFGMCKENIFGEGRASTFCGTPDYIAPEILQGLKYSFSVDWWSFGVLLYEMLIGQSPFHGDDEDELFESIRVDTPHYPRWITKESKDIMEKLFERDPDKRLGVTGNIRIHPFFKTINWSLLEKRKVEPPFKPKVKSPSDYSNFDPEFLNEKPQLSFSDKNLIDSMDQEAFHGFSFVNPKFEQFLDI
UniProt P17047: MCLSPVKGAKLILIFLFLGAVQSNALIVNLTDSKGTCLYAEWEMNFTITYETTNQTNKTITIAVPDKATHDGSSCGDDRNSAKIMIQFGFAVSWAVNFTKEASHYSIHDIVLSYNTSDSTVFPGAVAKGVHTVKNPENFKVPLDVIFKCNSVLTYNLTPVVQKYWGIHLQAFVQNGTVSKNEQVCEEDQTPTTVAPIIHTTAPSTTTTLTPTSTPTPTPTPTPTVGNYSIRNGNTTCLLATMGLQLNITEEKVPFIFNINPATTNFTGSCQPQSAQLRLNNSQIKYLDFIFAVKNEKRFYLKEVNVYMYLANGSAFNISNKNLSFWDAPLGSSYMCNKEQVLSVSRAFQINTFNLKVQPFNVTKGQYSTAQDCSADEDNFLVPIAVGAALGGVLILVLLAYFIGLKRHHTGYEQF
UniProt P23881: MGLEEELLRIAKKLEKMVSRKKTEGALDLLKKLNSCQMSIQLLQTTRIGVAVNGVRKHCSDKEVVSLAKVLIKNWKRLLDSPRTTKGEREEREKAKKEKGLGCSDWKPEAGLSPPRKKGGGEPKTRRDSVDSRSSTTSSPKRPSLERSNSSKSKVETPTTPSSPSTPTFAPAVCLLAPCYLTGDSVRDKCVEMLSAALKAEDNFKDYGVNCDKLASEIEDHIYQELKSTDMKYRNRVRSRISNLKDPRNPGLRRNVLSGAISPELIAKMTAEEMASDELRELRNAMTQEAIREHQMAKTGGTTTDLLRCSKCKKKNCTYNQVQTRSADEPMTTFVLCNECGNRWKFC

What follows are targets tested with CN[C@@H]1C[C@H]2O[C@@](C)([C@@H]1OC)n1c3ccccc3c3c4c(c5c6ccccc6n2c5c31)C(=O)NC4 [staurosporine] (assay: log2 fold change of tryptic peptide abundance, ligand vs vehicle (limited proteolysis) (log2 ratio); higher = more trypsin-susceptible (destabilized)). Conditions: ligand concentration: 20 uM; sample: mouse liver crude lysate; replicate design: treated separately.

Target | log2 fold change
UniProt P27773 (peptide sequence: KFISDKDASVVGFFR, peptide start residue: 147) | -0.495
UniProt P20443 (peptide sequence: VYVTLTCAFR, peptide start residue: 53) | 0.168
UniProt P20152 (peptide sequence: DGQVINETSQHHDDLE, peptide start residue: 451) | -0.121
UniProt P16332 (peptide sequence: ADTLDLPEELPGVKPFTR, peptide start residue: 74) | -0.257
UniProt P34884 (peptide sequence: LLCGLLSDR, peptide start residue: 79) | -0.166
UniProt P28271 (peptide sequence: EVYQKIETVNK, peptide start residue: 611) | -0.433
UniProt P24369 (peptide sequence: DKPLKDVIIVDSGK, peptide start residue: 191) | -0.268
UniProt P29754 (peptide sequence: ALNSSTEDGIKR, peptide start residue: 2) | 0.291
UniProt P28063 (peptide sequence: ATAGSYISSLR, peptide start residue: 92) | 0.586
UniProt P30051 (peptide sequence: IILSDEGK, peptide start residue: 58) | 0.0643
UniProt P24063 (peptide sequence: DMGCLEPLRESDKD, peptide start residue: 1149) | -0.395
UniProt P28704 (peptide sequence: GKDKDGDGDGAGGAPEEMPVDR, peptide start residue: 269) | 1.01
UniProt P28574 (peptide sequence: NHTHQQDIDDLKR, peptide start residue: 78) | 0.367
UniProt P25322 (peptide sequence: TTHFLSR, peptide start residue: 229) | -0.18
UniProt P27641 (peptide sequence: ALHLQER, peptide start residue: 498) | 0.305
UniProt P26369 (peptide sequence: EEHGGLIR, peptide start residue: 71) | -0.175
UniProt P19783 (peptide sequence: ANPIQGFSAK, peptide start residue: 150) | -0.231
UniProt P28667 (peptide sequence: LSGLSFKR, peptide start residue: 100) | 0.176
UniProt P33267 (peptide sequence: SQDLLTSLTK, peptide start residue: 48) | 0.2
UniProt P24270 (peptide sequence: RLCENIAGHLK, peptide start residue: 458) | -0.198
UniProt P30545 (peptide sequence: EKEEGETPEDPEAR, peptide start residue: 261) | -0.327
UniProt P28867 (peptide sequence: TTFDAHIYEGR, peptide start residue: 57) | 0.712
UniProt P17563 (peptide sequence: VIEASEIQAK, peptide start residue: 121) | 0.142
UniProt P15975 (peptide sequence: EHVYQTNEHKVERPDR, peptide start residue: 801) | 0.441
UniProt P17047 (peptide sequence: HHTGYEQF, peptide start residue: 408) | 0.0732
UniProt P23881 (peptide sequence: NAMTQEAIR, peptide start residue: 284) | 0.13
UniProt P25916 (peptide sequence: CPAAMTVMHLR, peptide start residue: 164) | 0.443
UniProt P35235 (peptide sequence: FDSLTDLVEHYKK, peptide start residue: 187) | 0.484

Reformatted tab-delimited: entries from further up
Target	log2 fold change
UniProt P25916 (peptide sequence: CPAAMTVMHLR, peptide start residue: 164)	0.443
UniProt P35235 (peptide sequence: FDSLTDLVEHYKK, peptide start residue: 187)	0.484
